# Measured values taken from PubChem BioAssay AID587 (National Center for Advancing Translational Sciences (NCATS), 2007).
# Out of some 59,000 compounds screened, about 35 (0.06%) were called active. Inconclusive results, whose numbers are uncertain, are shown with a selection of clear calls. No stated cut-off is given here; in the data, active means max dye-equivalent concentration above about 10 nM; inconclusive means between about 1.1 nM and that limit; inactive means weaker than that.
# Assay: qHTS Assay for Spectroscopic Profiling in Texas Red Spectral Region
# Conditions: Compound fluorescence, Texas Red channel, 547/618 nm; stronger effect = higher value
# Method in brief: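 Spectral interference profiling: each compound concentration's relative fluorescence, read with a 547 nm excitation and 618 nm emission filter pair, was normalized to a per-plate Texas Red standard curve.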
row,Structure (SMILES),max dye-equivalent concentration
1,Cc1cc(-c2ccco2)n2c(nc3ccccc32)c1C#N,inactive
2,N[C@H](CCCC(=O)O)C(=O)O,inconclusive: 1.5 nM
3,Cc1csc(NC(=O)CSc2nsc(SCC(=O)Nc3nc(C)cs3)c2C#N)n1,inconclusive: 1.5 nM
4,COc1ccccc1OCC(=O)Nc1cccc(C(=O)N2CCOCC2)c1,inconclusive: 1.5 nM
5,CC(=O)c1cccc(OCC(=O)c2cc(C)n(-c3cc(C)on3)c2C)c1,inconclusive: 1.7 nM
6,Cc1cccc(NC(=O)CSc2nnc(-c3ccco3)o2)c1C,inconclusive: 1.1 nM
7,CC(C)CCn1c(Br)nc2c1c(=O)n(CC(N)=O)c(=O)n2C,inconclusive: 1.2 nM
8,COC(=O)[C@@H](NC(=O)NCc1ccco1)C(C)C,inconclusive: 1.1 nM
9,COc1ccc(C2C3=C(CC(C)(C)CC3=O)N(CCN3CCOCC3)C3=C2C(=O)CC(C)(C)C3)cc1,inconclusive: 1.1 nM
10,CC(=O)c1cccc(NC(=O)NCc2cccnc2)c1,inconclusive: 1.1 nM
11,CCOC(=O)c1cccc(NC(=O)CSc2nc(N)cc(N)n2)c1,inconclusive: 1.1 nM
12,CCOC(=O)C1CCCN(S(=O)(=O)c2cc(OCC(N)=O)c(C)cc2Cl)C1 (centres undefined),inconclusive: 1.5 nM
13,CC12CCC(c3c(C(=O)O)nn(-c4ccccc4)c31)C2(C)C (centres undefined),inconclusive: 1.4 nM
14,CCc1cccc(NC(=O)CN(C)S(=O)(=O)c2cccc3nsnc23)c1,inconclusive: 1.7 nM
15,CCn1c(Cc2ccccc2)nnc1SCC(=O)Nc1nccs1,inconclusive: 1.6 nM
16,CNC[C@H](O)c1ccc(O)c(O)c1,inconclusive: 1.1 nM
17,CCN(CC)C(=O)CSc1nnc(-c2cnccn2)n1-c1ccc(C)cc1,inconclusive: 2 nM
18,COc1cccc(C(=O)NCC(=O)N2CCC(C)CC2)c1,inconclusive: 1.5 nM
19,c1ccc2c(c1)OCC(c1nn3c(Cn4nnc5ccccc54)nnc3s1)O2 (centres undefined),inconclusive: 1.3 nM
20,COc1ccccc1N1CCN(C(=O)C2CC=CCC2C(=O)O)CC1 (centres undefined),inconclusive: 1.8 nM
21,O=C1c2oc3ccc(Cl)cc3c(=O)c2C(c2cccnc2)N1Cc1ccco1 (centres undefined),inconclusive: 1.2 nM

# Reformatted: entries from further up
row | Structure (SMILES) | max dye-equivalent concentration
10 | CC(=O)c1cccc(NC(=O)NCc2cccnc2)c1 | inconclusive: 1.1 nM
11 | CCOC(=O)c1cccc(NC(=O)CSc2nc(N)cc(N)n2)c1 | inconclusive: 1.1 nM

# (listing goes on)

row,Structure (SMILES),max dye-equivalent concentration
1,COc1c(C)cccc1C(=O)Nc1ccc(CN2CCOCC2)cc1,inconclusive: 1.8 nM
2,CC(=O)Nc1ccc(NC(=O)Cn2c(CC(=O)N3CCCC3)nc3ccccc32)cc1,inconclusive: 2.2 nM
3,COC(=O)c1cc(OC)c(OC)cc1NC(=O)c1cc(C)on1,inconclusive: 2 nM
4,Clc1cccc(-c2nnc(SCc3nc4ccccc4[nH]3)n2Cc2ccco2)c1,inconclusive: 1.5 nM
5,Cc1nnc(NC(=O)C2CCCN(S(=O)(=O)Cc3ccccc3)C2)s1 (centres undefined),inconclusive: 1.3 nM
6,CC(=O)N1CCC2(CC1)CN(Cc1ccc(C#N)cc1)C2,inconclusive: 1.2 nM
7,CN1/C(=C\C(=O)c2ccco2)c2ccccc2CC1(C)C,inconclusive: 1.2 nM
8,O=C(CNCC1CCCO1)Nc1ccccc1-n1cccc1 (centres undefined),inconclusive: 1.7 nM
9,C=CCn1c(SCC(=O)/C(C#N)=C(\C)N)nnc1C1CCCCC1,inconclusive: 1.1 nM
10,CCOC(=O)Cc1cnc(NC(=O)NC(C(=O)OCC)(c2ccccc2)C(F)(F)F)s1 (centres undefined),inconclusive: 1.8 nM
11,COC(=O)Nc1nc2ccc(C(=O)c3cccs3)cc2[nH]1,inconclusive: 1.5 nM
12,CC(C)(O/N=C(\C(=O)N[C@@H]1C(=O)N2C(C(=O)[O-])=C(C[n+]3ccccc3)CS[C@@H]12)c1csc(N)n1)C(=O)O,inconclusive: 1.2 nM
13,CC1CCN(c2oc(-c3cccc4ccccc34)nc2C#N)CC1,inconclusive: 1.8 nM
14,CN1CCN(CCCN2c3ccccc3Sc3ccc(C(F)(F)F)cc32)CC1,inconclusive: 1.3 nM
15,O=C(NC1CCCCC1)n1c(=O)oc2cc(S(=O)(=O)N3CCCCC3)ccc21,inconclusive: 1.8 nM
16,CN(C)CCN1C(=O)C(=O)/C(=C(/O)c2ccc(OCc3ccccc3)cc2)C1c1ccncc1 (centres undefined),inconclusive: 2.1 nM
17,N#CC1=C(N)Oc2n[nH]c(CSc3ccccc3)c2C12C(=O)Nc1ccccc12 (centres undefined),inconclusive: 1.4 nM
18,CCOC(=O)c1ccc(NS(=O)(=O)c2ccc3c(c2)CCCN3C(C)=O)cc1,inconclusive: 1.1 nM
19,COC(=O)CSc1nnc(CNC(=O)Cc2ccccc2)n1-c1ccccc1OC,inconclusive: 1.5 nM
20,CCc1c(C)nc2ncnn2c1N1CCC(C(=O)Nc2ccccc2)CC1,inconclusive: 1.4 nM
21,CCCc1nc2oc3c(NCCOCCO)ncnc3c2c2c1COC(C)(C)C2,inconclusive: 1.1 nM

# Structures listed so far that have a CF3 group, in the order listed:
row,Structure (SMILES),max dye-equivalent concentration
10,CCOC(=O)Cc1cnc(NC(=O)NC(C(=O)OCC)(c2ccccc2)C(F)(F)F)s1 (centres undefined),inconclusive: 1.8 nM
14,CN1CCN(CCCN2c3ccccc3Sc3ccc(C(F)(F)F)cc32)CC1,inconclusive: 1.3 nM

# More records

row,Structure (SMILES),max dye-equivalent concentration
1,Cc1cc(C)n(CCOc2ccc(Cl)cc2Cl)n1,inconclusive: 1.9 nM
2,CCOC(=O)c1c(=O)n(O)c2ccc(C)cc2[n+]1[O-],inconclusive: 2.1 nM
3,Cc1ccc2oc(=O)cc(CN3CCC(C)CC3)c2c1,inconclusive: 1.4 nM
4,CCN1C(=S)SC(=O)C1=C1C=C(C)N(Cc2ccco2)C(C)=C1,inconclusive: 1.2 nM
5,COc1ccc(C(c2nnnn2Cc2ccccc2)N2CCN(C(=O)c3ccco3)CC2)cc1OC (centres undefined),inconclusive: 1.6 nM
6,CCOc1ccc(S(=O)(=O)NC(C)(C)C)cc1-c1nc2c(C(C)(C)C)nn(C)c2c(=O)[nH]1,inconclusive: 1.4 nM
7,Cc1ccc(S(=O)(=O)N2CCC(C(=O)N[C@@H](C)C(=O)NCc3ccccc3)CC2)cc1,inconclusive: 1.1 nM
8,CCOC(=O)c1cnc2sccn2c1=O,inactive
9,CN1C(=O)/C(=C2/C=Cc3ccccc3N2CCCS(=O)(=O)O)SC1=S,inconclusive: 1.1 nM
10,Cc1ccc(S(=O)(=O)N2CCC(C(=O)N[C@H](C(=O)NCc3ccco3)C(C)C)CC2)cc1,inconclusive: 1.7 nM
11,Cc1ccc2nc(NC(=O)c3cccs3)sc2c1,inconclusive: 1.2 nM
12,O=C1c2ccccc2C(=O)N1CC(O)COCc1ccccc1 (centres undefined),inconclusive: 1.9 nM
13,Cc1c(CNC(=O)c2nn3c(c2Cl)NC(c2ccccc2)CC3C(F)(F)F)cnn1C (centres undefined),inconclusive: 1.7 nM
14,COCCNC(=O)c1ccccc1NC(=O)CN(c1ccc2c(c1)OCO2)S(C)(=O)=O,inconclusive: 1.5 nM
15,CN(C)Cc1ccccc1-c1nccc(NCc2cccs2)n1,inactive
16,Cc1nn(Cc2ccccc2)c(C)c1C(=O)OCC(=O)c1cc(C)n(C2CC2)c1C,inconclusive: 2.2 nM
17,CCC(=O)N1CCc2cc(OC)c(OC)cc2C1COc1ccc(C(=O)OC)cc1 (centres undefined),inconclusive: 2.6 nM
18,O=C(NCC(=O)N(c1cccnc1)C(C(=O)NC1CCCCC1)c1cccnc1)c1ccco1 (centres undefined),inconclusive: 1.9 nM
19,CCn1c(COc2ccccc2OC)nnc1SCC#N,inconclusive: 1.2 nM
20,CCN(CC)C(=O)CSc1nc2ncccc2[nH]1,inconclusive: 1.1 nM
21,COc1ccc(N2CCN(C(=O)CCn3nnc4ccccc43)CC2)cc1,inconclusive: 1.2 nM

row,Structure (SMILES),max dye-equivalent concentration
1,CC(Oc1ccc(Cl)cc1Cl)C(=O)N(Cc1ccco1)C1CCS(=O)(=O)C1 (centres undefined),inconclusive: 1.3 nM
2,Cc1cc(NC(=O)COC(=O)CSCc2ccc(Cl)c(Cl)c2)no1,inactive
3,Cc1ccc(C)c(N2CCN(C(=O)C3CCCN(S(=O)(=O)c4c(C)[nH]c(=O)[nH]c4=O)C3)CC2)c1 (centres undefined),inconclusive: 1.3 nM
4,Cc1c(C(=O)NC(C)C)oc2c1-c1[nH]ncc1CC2,inconclusive: 2.4 nM
5,CC(C)[C@@H]1N[C@]2(C(=O)Nc3ccccc32)[C@@H]2C(=O)N(c3cccc(C(F)(F)F)c3)C(=O)[C@@H]21,inconclusive: 1.1 nM
6,Cn1c(SCC(=O)NCc2ccc3c(c2)OCO3)nnc1C1COc2ccccc2O1 (centres undefined),inconclusive: 1.1 nM
7,Nc1ncnc2c1ncn2CCNCCc1ccccc1,inconclusive: 1.5 nM
8,O=C(COc1ncnc2ccccc12)N1CCOCC1,inconclusive: 1.4 nM
9,Cc1onc(-c2ccccc2)c1C(=O)Nc1cccnc1,inconclusive: 1.4 nM
10,COc1ccc(OC)c(S(=O)(=O)N2c3ccccc3CC2C)c1 (centres undefined),inconclusive: 1.1 nM
11,CCCc1c(-c2ccc(O)cc2)nn(-c2ccc(O)cc2)c1-c1ccc(O)cc1,inconclusive: 1.2 nM
12,CCCCC[C@H](O)/C=C/C1=C(CCCCCCC(=O)O)C(=O)CC1,inconclusive: 1.1 nM
13,COc1cccc(-c2nccc(NC3CCNCC3)n2)c1,inactive
14,CCOc1ccc(-c2nnn(CC(=O)NCc3ccc(OC)cc3)n2)cc1OCC,inconclusive: 1.2 nM
15,CC1CCCN(CC(O)COc2ccc(Cl)cc2)C1 (centres undefined),inconclusive: 1.2 nM
16,N#[N+]c1ccc(Nc2ccccc2)cc1,inactive
17,Cc1ccc(C2C(C#N)=C(N)SC(N)=C2C#N)cc1,inactive
18,COc1ccc(NC(=O)/C=C\c2ccc(Cl)cc2)cc1,inconclusive: 1.3 nM
19,Cn1c(=O)c2c(nc(NCCCO)n2CCc2ccccc2)n(C)c1=O,inconclusive: 1.1 nM
20,CCOCCCN(C(=O)Cn1nnc2ccccc21)C(C(=O)NCc1ccco1)c1ccncc1 (centres undefined),inconclusive: 1.2 nM
21,CNc1oc(-c2ccco2)nc1C#N,inconclusive: 1.1 nM
